Test results published in article doi:10.1101/2022.10.05.510992.

Target: NBCn1 C-terminal tail (bait of the pull-down with mass spectrometry)
Assay: affinity purification with mass spectrometry

- binding: binds
B1: CEP135 (protein, UniProt Q66GS9 1-1140)
chain: MTTAVERKYINIRKRLDQLGYRQTLTVECLPLVEKLFSDLVHTTESLRQSKLSAVKAEKESANFDFVLEPYKLENARLSRENNELYLELMKLREHSDQHVKELKTSLKKCARETADLKFLNNQYAHKLKLLEKESKAKNERIQQLQEKNLHAVVQTPGGKKRSIAFRRQRMQIDEPVPPSEVSSYPVPQPDDPYIADLLQVADNRIQELQQEVHQLQEKLAMMESGVRDYSKQIELREREIERLSVALDGGRSPDVLSLESRNKTNEKLIAHLNIQVDFLQQANKDLEKRIRELMETKETVTSEVVNLSNKNEKLCQELTEIDQLAQQLERHKEEVLETADKELGEAKKEIKRKLSEMQDLEETMAKLQLELNLCQKEKERLSDELLVKSDLETVVHQLEQEKQRLSKKVESFAVTERQLTLEVERMRLEHGIKRRDRSPSRLDTFLKGIEEERDYYKKELERLQHIIQRRSCSTSYSAREKSSIFRTPEKGDYNSEIHQITRERDELQRMLERFEKYMEDIQSNVKLLTAERDKLSVLYNEAQEELSALRKESTQTTAPHNIVSLMEKEKELALSDLRRIMAEKEALREKLEHIEEVSLFGKSELEKTIEHLTCVNHQLESEKYELKSKVLIMKETIESLENKLKVQAQKFSHVAGDSSHQKTEVNSLRIVNEQLQRSVDDYQHRLSIKRGELESAQAQIKILEEKIDELNLKMTSQDEEAHVMKKTIGVIDKEKDFLQETVDEKTEKIANLQENLANKEKAVAQMKIMISECESSVNQLKETLVNRDREINSLRRQLDAAHKELDEVGRSREIAFKENRRLQDDLATMARENQEISLELEAAVQEKEEMKSRVHKYITEVSRWESLMAAKEKENQDLLDRFQMLHNRAEDWEVKAHQAEGESSSVRLELLSIDTERRHLRERVELLEKEIQEHINAHHAYESQISSMAKAMSRLEEELRHQEDEKATVLNDLSSLRELCIKLDSGKDIMTQQLNSKNLEFERVVVELENVKSESDLLKKQLSNERHTVKNLESLLATNRDKEFHSHLTSHEKDTEIQLLKEKLTLSESKLTSQSRENTMLRAKVAQLQTDYDALKRQISTERYERERAIQEMRRHGLATPPLSSTLRSPSHSPEHRNV

- binding: binds
B2: intraflagellar transport protein 27 (IFT27), native in MCF-7 cells (protein, UniProt Q9BW83 1-186)
chain: MVKLAAKCILAGDPAVGKTALAQIFRSDGAHFQKSYTLTTGMDLVVKTVPVPDTGDSVELFIFDSAGKELFSEMLDKLWESPNVLCLVYDVTNEESFNNCSKWLEKARSQAPGISLPGVLVGNKTDLAGRRAVDSAEARAWALGQGLECFETSVKEMENFEAPFHCLAKQFHQLYREKVEVFRALA

- binding: binds
B3: α-catenin-2 (protein, UniProt P26232 1-953)
chain: MTSATSPIILKWDPKSLEIRTLTVERLLEPLVTQVTTLVNTSNKGPSGKKKGRSKKAHVLAASVEQATQNFLEKGEQIAKESQDLKEELVAAVEDVRKQGETMRIASSEFADDPCSSVKRGTMVRAARALLSAVTRLLILADMADVMRLLSHLKIVEEALEAVKNATNEQDLANRFKEFGKEMVKLNYVAARRQQELKDPHCRDEMAAARGALKKNATMLYTASQAFLRHPDVAATRANRDYVFKQVQEAIAGISNAAQATSPTDEAKGHTGIGELAAALNEFDNKIILDPMTFSEARFRPSLEERLESIISGAALMADSSCTRDDRRERIVAECNAVRQALQDLLSEYMNNTGRKEKGDPLNIAIDKMTKKTRDLRRQLRKAVMDHISDSFLETNVPLLVLIEAAKSGNEKEVKEYAQVFREHANKLVEVANLACSISNNEEGVKLVRMAATQIDSLCPQVINAALTLAARPQSKVAQDNMDVFKDQWEKQVRVLTEAVDDITSVDDFLSVSENHILEDVNKCVIALQEGDVDTLDRTAGAIRGRAARVIHIINAEMENYEAGVYTEKVLEATKLLSETVMPRFAEQVEVAIEALSANVPQPFEENEFIDASRLVYDGVRDIRKAVLMIRTPEELEDDSDFEQEDYDVRSRTSVQTEDDQLIAGQSARAIMAQLPQEEKAKIAEQVEIFHQEKSKLDAEVAKWDDSGNDIIVLAKQMCMIMMEMTDFTRGKGPLKNTSDVINAAKKIAEAGSRMDKLARAVADQCPDSACKQDLLAYLQRIALYCHQLNICSKVKAEVQNLGGELIVSGTGVQSTFTTFYEVDCDVIDGGRASQLSTHLPTCAEGAPIGSGSSDSSMLDSATSLIQAAKNLMNAVVLTVKASYVASTKYQKVYGTAAVNSPVVSWKMKAPEKKPLVKREKPEEFQTRVRRGSQKKHISPVQALSEFKAMDSF

- binding: binds
B4: AP-1μ1 (protein, UniProt Q9BXS5 1-423)
chain: MSASAVYVLDLKGKVLICRNYRGDVDMSEVEHFMPILMEKEEEGMLSPILAHGGVRFMWIKHNNLYLVATSKKNACVSLVFSFLYKVVQVFSEYFKELEEESIRDNFVIIYELLDELMDFGYPQTTDSKILQEYITQEGHKLETGAPRPPATVTNAVSWRSEGIKYRKNEVFLDVIESVNLLVSANGNVLRSEIVGSIKMRVFLSGMPELRLGLNDKVLFDNTGRGKSKSVELEDVKFHQCVRLSRFENDRTISFIPPDGEFELMSYRLNTHVKPLIWIESVIEKHSHSRIEYMIKAKSQFKRRSTANNVEIHIPVPNDADSPKFKTTVGSVKWVPENSEIVWSIKSFPGGKEYLMRAHFGLPSVEAEDKEGKPPISVKFEIPYFTTSGIQVRYLKIIEKSGYQALPWVRYITQNGDYQLRTQ

- binding: binds
B5: AP-1β (protein, UniProt Q10567 1-949)
chain: MTDSKYFTTTKKGEIFELKAELNSDKKEKKKEAVKKVIASMTVGKDVSALFPDVVNCMQTDNLELKKLVYLYLMNYAKSQPDMAIMAVNTFVKDCEDPNPLIRALAVRTMGCIRVDKITEYLCEPLRKCLKDEDPYVRKTAAVCVAKLHDINAQLVEDQGFLDTLKDLISDSNPMVVANAVAALSEIAESHPSSNLLDLNPQSINKLLTALNECTEWGQIFILDCLANYMPKDDREAQSICERVTPRLSHANSAVVLSAVKVLMKFMEMLSKDLDYYGTLLKKLAPPLVTLLSAEPELQYVALRNINLIVQKRPEILKHEMKVFFVKYNDPIYVKLEKLDIMIRLASQANIAQVLAELKEYATEVDVDFVRKAVRAIGRCAIKVEQSAERCVSTLLDLIQTKVNYVVQEAIVVIKDIFRKYPNKYESVIATLCENLDSLDEPEARAAMIWIVGEYAERIDNADELLESFLEGFHDESTQVQLQLLTAIVKLFLKKPTETQELVQQVLSLATQDSDNPDLRDRGYIYWRLLSTDPVAAKEVVLAEKPLISEETDLIEPTLLDELICYIGTLASVYHKPPSAFVEGGRGVVHKSLPPRTASSESAESPETAPTGAPPGEQPDVIPAQGDLLGDLLNLDLGPPVSGPPLATSSVQMGAVDLLGGGLDSLMGDEPEGIGGTNFVAPPTAAVPANLGAPIGSGLSDLFDLTSGVGTLSGSYVAPKAVWLPAMKAKGLEISGTFTRQVGSISMDLQLTNKALQVMTDFAIQFNRNSFGLAPAAPLQVHAPLSPNQTVEISLPLSTVGSVMKMEPLNNLQVAVKNNIDVFYFSTLYPLHILFVEDGKMDRQMFLATWKDIPNENEAQFQIRDCPLNAEAASSKLQSSNIFTVAKRNVEGQDMLYQSLKLTNGIWVLAELRIQPGNPSCTDLELSLKCRAPEVSQHVYQAYETILKN

- binding: binds
B6: p120 catenin (CTNND1) (protein, UniProt O60716 1-968)
chain: MDDSEVESTASILASVKEQEAQFEKLTRALEEERRHVSAQLERVRVSPQDANPLMANGTLTRRHQNGRFVGDADLERQKFSDLKLNGPQDHSHLLYSTIPRMQEPGQIVETYTEEDPEGAMSVVSVETSDDGTTRRTETTVKKVVKTVTTRTVQPVAMGPDGLPVDASSVSNNYIQTLGRDFRKNGNGGPGPYVGQAGTATLPRNFHYPPDGYSRHYEDGYPGGSDNYGSLSRVTRIEERYRPSMEGYRAPSRQDVYGPQPQVRVGGSSVDLHRFHPEPYGLEDDQRSMGYDDLDYGMMSDYGTARRTGTPSDPRRRLRSYEDMIGEEVPSDQYYWAPLAQHERGSLASLDSLRKGGPPPPNWRQPELPEVIAMLGFRLDAVKSNAAAYLQHLCYRNDKVKTDVRKLKGIPVLVGLLDHPKKEVHLGACGALKNISFGRDQDNKIAIKNCDGVPALVRLLRKARDMDLTEVITGTLWNLSSHDSIKMEIVDHALHALTDEVIIPHSGWEREPNEDCKPRHIEWESVLTNTAGCLRNVSSERSEARRKLRECDGLVDALIFIVQAEIGQKDSDSKLVENCVCLLRNLSYQVHREIPQAERYQEAAPNVANNTGPHAASCFGAKKGKDEWFSRGKKPIEDPANDTVDFPKRTSPARGYELLFQPEVVRIYISLLKESKTPAILEASAGAIQNLCAGRWTYGRYIRSALRQEKALSAIADLLTNEHERVVKAASGALRNLAVDARNKELIGKHAIPNLVKNLPGGQQNSSWNFSEDTVISILNTINEVIAENLEAAKKLRETQGIEKLVLINKSGNRSEKEVRAAALVLQTIWGYKELRKPLEKEGWKKSDFQVNLNNASRSQSSHSYDDSTLPLIDRNQKSDKKPDREEIQMSNMGSNTKSLDNNYSTPNERGDHNRTLDRSGDLGDMEPLKGTTPLMQDEGQESLEEELDVLVLDDEGGQVSYPSMQKI

- binding: binds
B7: AP-1μ2 (protein, UniProt Q9Y6Q5 1-423)
chain: MSASAVFILDVKGKPLISRNYKGDVAMSKIEHFMPLLVQREEEGALAPLLSHGQVHFLWIKHSNLYLVATTSKNANASLVYSFLYKTIEVFCEYFKELEEESIRDNFVIVYELLDELMDFGFPQTTDSKILQEYITQQSNKLETGKSRVPPTVTNAVSWRSEGIKYKKNEVFIDVIESVNLLVNANGSVLLSEIVGTIKLKVFLSGMPELRLGLNDRVLFELTGRSKNKSVELEDVKFHQCVRLSRFDNDRTISFIPPDGDFELMSYRLSTQVKPLIWIESVIEKFSHSRVEIMVKAKGQFKKQSVANGVEISVPVPSDADSPRFKTSVGSAKYVPERNVVIWSIKSFPGGKEYLMRAHFGLPSVEKEEVEGRPPIGVKFEIPYFTVSGIQVRYMKIIEKSGYQALPWVRYITQSGDYQLRTS

Results are given in words; binding and its absence hold for the method and conditions named. In cells and extracts the contact can be indirect. Here binding means that the protein was enriched with, or labelled near, the bait; the list need not be complete. Tags and fused reporters may be left off the sequences shown. Each block holds one binder with its values, some of them ahead of it.
